These are yes or no findings as the source states them, for the method shown. Binding seen in cells or lysates may run through a third protein. A result given as binding can be weak or reduced; the word gives no strength. Sequences can lack the tags named with a protein.

Binding data for 3 molecules are collected here from publication PMC3942490.

For assay [1], the target named is DBP1 fused to maltose binding protein (MaBP) (Arabidopsis thaliana). As to the kind of experiment: co-IP; fusion proteins transiently coexpressed in N. benthamiana leaves; cleared extracts in TBS with 5 mM DTT, protease and phosphatase inhibitors, incubated 2 h at 4°C with conjugated antibodies (anti-MaBP or anti-HA); washes TBS, TBS 0.5% Triton X-100, TBS 0.3 M NaCl 1% NP-40; Western blot of the immunoprecipitate.

Assay [2] deals with Arabidopsis thaliana DBP1 fused to a YFP fragment (BiFC) (Arabidopsis thaliana). As to the kind of experiment: split reporter; BiFC: YFP^N and YFP^C fusions transiently coexpressed in N. benthamiana leaves by agroinfiltration (with P19); confocal microscopy three days after infiltration; both reciprocal combinations.
In assay [3] the target is Arabidopsis thaliana MAP kinase MPK11 fused to a YFP fragment (BiFC) (Arabidopsis thaliana). The assay is described as above.

B1: MPK11 fused to YFP (protein, UniProt Q9LMM5 1-369)
chain: MSIEKPFFGDDSNRGVSINGGRYVQYNVYGNLFEVSKKYVPPLRPIGRGASGIVCAAWNSETGEEVAIKKIGNAFGNIIDAKRTLREIKLLKHMDHDNVIAIIDIIRPPQPDNFNDVHIVYELMDTDLHHIIRSNQPLTDDHSRFFLYQLLRGLKYVHSANVLHRDLKPSNLLLNANCDLKIGDFGLARTKSETDFMTEYVVTRWYRAPELLLNCSEYTAAIDIWSVGCILGEIMTREPLFPGRDYVQQLRLITELIGSPDDSSLGFLRSDNARRYVRQLPQYPRQNFAARFPNMSVNAVDLLQKMLVFDPNRRITVDEALCHPYLAPLHEYNEEPVCVRPFHFDFEQPSLTEENIKELIYRESVKFNP
As to B1, the binding result in assay [1] is “binds”.

B2: Arabidopsis thaliana 14-3-3λ (GRF6) fused to a YFP fragment (BiFC) (protein, UniProt P48349 1-248)
chain: MAATLGRDQYVYMAKLAEQAERYEEMVQFMEQLVTGATPAEELTVEERNLLSVAYKNVIGSLRAAWRIVSSIEQKEESRKNDEHVSLVKDYRSKVESELSSVCSGILKLLDSHLIPSAGASESKVFYLKMKGDYHRYMAEFKSGDERKTAAEDTMLAYKAAQDIAAADMAPTHPIRLGLALNFSVFYYEILNSSDKACNMAKQAFEEAIAELDTLGEESYKDSTLIMQLLRDNLTLWTSDMQEQMDEA
Take B2: the binding result in assay [2] and in assay [3] was “binds” throughout.

B3: GRF6 tagged with the hemagglutinin (HA) epitope (protein, UniProt P48349 1-248)
chain: MAATLGRDQYVYMAKLAEQAERYEEMVQFMEQLVTGATPAEELTVEERNLLSVAYKNVIGSLRAAWRIVSSIEQKEESRKNDEHVSLVKDYRSKVESELSSVCSGILKLLDSHLIPSAGASESKVFYLKMKGDYHRYMAEFKSGDERKTAAEDTMLAYKAAQDIAAADMAPTHPIRLGLALNFSVFYYEILNSSDKACNMAKQAFEEAIAELDTLGEESYKDSTLIMQLLRDNLTLWTSDMQEQMDEA
Consider B3, for which the binding result in assay [1] is reported as “binds”.
